The campaign covered roughly 2,100 compounds. About 260 (12%) were called active. This list was built around the results that the source calls inconclusive (neither active nor inactive); the mix of calls is not that of the screen. The call rests on the fitted dose curve; in most records, active means well fitted cell-killing curve with a large enough effect; inconclusive means small, poorly fitted or top-dose-only effect, or effect the other way; inactive means flat fitted curve, though single readings scatter. A potency beside an inconclusive call is a rough fit, not a confirmed value.
Assay: Viability Counterscreen for Confirmatory qHTS for Inhibitors of ATXN expression; further: nearly all actives have a fitted effect of over 50% in size
Conditions: HEK-293 ATXN2-luc cells viability, CellTiter-Fluor, 24 h; activity change, negative = cytotoxicity: at 11.5 µM (top of the series) unless noted
Method in brief: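 Luminescence read-out (SteadyGlo, 5 min) followed a 30 min Gly-Phe-AFC (25 uM final) viability fluorescence read. ATXN2-luciferase reporter cells were exposed 24 h to a dilution series. Medium-only wells served as the 100% inhibition reference.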
Potency means the concentration at half of the fitted maximal effect.

| Compound | Potency | activity change, negative = cytotoxicity |
| --- | --- | --- |
| COC1=CC(=O)C=C(OC)C1(O)CC(C)=O | inconclusive: 5.01 µM [rising, partial curve] |  |
| Cc1cccc2sc(NNC(=O)c3ccc(S(=O)(=O)N4CCCC(C)C4)cc3)nc12 (stereo unspecified) | inconclusive: 12.6 µM [cytotoxic, partial curve] |  |
| CC(=O)NC(C)c1cc(Cl)c2cccnc2c1O (stereo unspecified) | inconclusive: 12.6 µM [cytotoxic, partial curve] |  |
| C=CCc1cccc(/C=N/NC(=O)CCCNc2ccc(C)cc2)c1O | inconclusive: 39.8 µM [cytotoxic, single point] |  |
| COCOCCn1cc(CN2CCS(=O)(=O)N(Cc3ccc(-c4ccc(OC)cc4)cc3)C(CC(C)C)C2=O)nn1 (stereo unspecified) | inconclusive: 35.5 µM [cytotoxic, single point] |  |
| O=C(CC1NCCc2ccccc21)Nc1ccc(Cl)cc1 (stereo unspecified) |  | inactive: 11.4% |
| O=C(CSc1nnc(-c2ccc(Br)cc2)o1)Nc1cccc(C(=O)O)c1 |  | inactive: -4.75% [at 57.5 µM] |
| Nc1c2ccccc2nc2ccccc12 | inconclusive: 39.8 µM [rising, single point] |  |
| O=C(CNC(=O)c1ccco1)N/N=C/c1cc(Br)ccc1O | inconclusive: 35.5 µM [cytotoxic, partial curve] |  |
| CN(C)c1nc(N/N=C/c2c[nH]c3ccccc23)nc(N2CCOCC2)n1 | inconclusive: 3.16 µM [rising, partial curve, poor fit] |  |
| Nc1ccc2c(c1)OC1(CCCC1)O2 |  | inactive: -8.89% |
| COc1ccc(Cn2cc3c(-c4ccc(F)cc4)nnc-3c3cc(OC)c(OC)cc32)cc1 | inconclusive: 8.91 µM [cytotoxic, single point] |  |
| O=C(COc1ccccc1)NCC(=O)N/N=C/c1ccc(O)cc1O | inconclusive: 31.6 µM [cytotoxic, single point] |  |
| Cn1nnnc1Sc1ncnc2scc(-c3ccccc3Br)c12 | inconclusive: 20 µM [cytotoxic, partial curve] |  |
| CC(C)CC(=O)NC(=S)NNC(=O)c1ccc(NC(=O)C2CCCCC2)cc1 |  | inactive: 4.48% |
| O=S(=O)(c1ccccc1)N1CCN(c2ccnc3cc(Cl)ccc23)CC1 | inconclusive: 25.1 µM [cytotoxic, partial curve, poor fit] |  |
| CC(C)c1cccc(C(C)C)c1Nc1cn[nH]c1 |  | inactive: -9.61% |
| C[C@@H](CN1C2=NC[C@H](Cc3ccccc3)N2C[C@H]1Cc1ccc(O)cc1)NC(=O)CCC1CCCCC1 | inconclusive: 25.1 µM [cytotoxic, single point] |  |
| CCN(CC)CCNC(=O)c1ccc(NC(=O)c2ccc(Cl)c(S(=O)(=O)N3CCCCCC3)c2)cc1 | inconclusive: 39.8 µM [cytotoxic, single point] |  |
| COC(=O)c1ccc(Oc2nc(NC(C)C)nc(N(C)C)n2)cc1 | inconclusive: 3.55 µM [cytotoxic, single point] |  |
| Cc1cc(C(=O)N/N=C/c2ccc([N+](=O)[O-])s2)n[nH]1 | inconclusive: 20 µM [cytotoxic, partial curve] |  |
| CC(O)(c1ccccc1)c1nc(-c2ccncc2)cs1 (stereo unspecified) |  | inactive: -3.76% |
| Cc1ccc(C)c(S(=O)(=O)N2CCN(c3ncnc4sccc34)CC2)c1 | inconclusive: 2.82 µM [cytotoxic, partial curve] |  |
| Cn1c(CO)cnc1SCC(=O)c1ccc(Br)cc1 | inconclusive: 25.1 µM [cytotoxic, partial curve, poor fit] |  |

Entries of single compounds as entered above:
CN(C)c1nc(N/N=C/c2c[nH]c3ccccc23)nc(N2CCOCC2)n1 in the list: Potency: inconclusive: 3.16 µM [rising, partial curve, poor fit]
O=C(CNC(=O)c1ccco1)N/N=C/c1cc(Br)ccc1O in the list: Potency: inconclusive: 35.5 µM [cytotoxic, partial curve]
CC(O)(c1ccccc1)c1nc(-c2ccncc2)cs1 (stereo unspecified) in the list: activity change, negative = cytotoxicity: inactive: -3.76%

Remaining list, next part:

| Compound | Potency | activity change, negative = cytotoxicity |
| --- | --- | --- |
| CC(Nc1ccccc1CO)C(=O)Nc1cccc(Cl)c1Cl (stereo unspecified) | inconclusive: 3.98 µM [cytotoxic, full curve, poor fit] |  |
| CCCCCC(=O)N/N=C(\C)c1ccccn1 |  | inactive: -17.7% |
| S=C(NCCCN1CCOCC1)N1CCN(c2nc(-c3ccccc3)cs2)CC1 | inconclusive: 20 µM [cytotoxic, partial curve, poor fit] |  |
| Cc1cc(C(=O)CN2C(=O)c3ccccc3S2(=O)=O)c(C)n1C(C)C |  | inactive: 4.42% |
| O=C(Nc1ccc(N2CCN(C(=O)c3ccco3)CC2)c(Cl)c1)c1cccs1 | inconclusive: 31.6 µM [cytotoxic, single point] |  |
| Cc1cc(Cl)ccc1OCCCC(=O)NNC(=O)c1ccccc1O |  | inactive: -10.4% |
| CCCCC(=O)NNC(=S)NC(=O)c1ccc(C)cc1 |  | inactive: -5.51% |
| Cc1cc(C)n2nc(C(=O)N/N=C/c3c4ccccc4cc4ccccc34)nc2n1 | inconclusive: 39.8 µM [rising, single point] |  |
| N#C/C(=C\c1ccc([N+](=O)[O-])o1)c1nc2ccccc2[nH]1 | active: 7.94 µM |  |
| Cc1c(Cl)cccc1NC(=O)N1CCCN(c2nc(-c3ccccc3)ns2)CC1 | inconclusive: 15.8 µM [cytotoxic, partial curve, poor fit] |  |
| O=[N+]([O-])c1ccccc1S(=O)(=O)Nc1cccc2cccnc12 | active: 17.8 µM |  |
| CC1CCCN(c2ncnc3c2cnn3-c2ccc(Cl)cc2)C1 (stereo unspecified) |  | inactive: -1.47% [at 57.5 µM] |
| Cc1nn(C)c(C)c1NC(=O)CSc1nc(Cc2ccccc2)nc2c1cnn2-c1ccccc1 | inconclusive: 3.55 µM [cytotoxic, single point] |  |
| CCOC(=O)c1ccccc1NC(=O)CSc1nc2ccccc2c(=O)n1CCCN1CCOCC1 | inconclusive: 28.2 µM [cytotoxic, single point] |  |
| COc1ccc(/C=N/NC(=O)c2nc(-c3ccccc3)n(-c3ccccc3)n2)c(O)c1 | inconclusive: 10 µM [cytotoxic, partial curve] |  |
| O=C(Nc1ccc(Cc2ccncc2)cc1)c1ccc(S(=O)(=O)N2CCCC2)cc1 | inconclusive: 35.5 µM [cytotoxic, single point] |  |
| Cc1onc(-c2c(F)cccc2Cl)c1C(=O)Nc1nnc(C(F)(F)F)s1 |  | inactive: -24.9% |
| OCCNc1c2ccccc2nc2c(F)c(F)c(F)c(F)c12 |  | inactive: 19.5% [at 57.5 µM] |
| O=C(Nc1nc(-c2ccccn2)cs1)c1ccccc1-n1cnnn1 | inconclusive: 10 µM [cytotoxic, partial curve] |  |
| C/C(=N\NC(=O)c1cccc2ccccc12)c1ccccn1 | active: 6.31 µM |  |
| CS/C(=C\[N+](=O)[O-])Nc1ccc(OC(F)(F)F)cc1 | inconclusive: 39.8 µM [cytotoxic, single point] |  |
| CN(C)c1cc[n+](CC(=O)c2ccc(-c3ccccc3)cc2)cc1 | inconclusive: 2.24 µM [cytotoxic, partial curve, poor fit] |  |
| CCCc1nc2c(c(=O)c3ccccc3n2C)c(=O)n1C1CCCCCC1 | active: 28.2 µM |  |
| COc1ccc(CCC(=O)Nc2c(-c3ccc(N(C)C)cc3)[nH][nH]c2=O)cc1 | inconclusive: 39.8 µM [cytotoxic, partial curve, poor fit] |  |

| Compound | Potency | activity change, negative = cytotoxicity |
| --- | --- | --- |
| Cc1ccc2c(CC(=O)NNC(=O)c3ccccc3O)coc2c1 |  | inactive: -16% |
| O=C(CSc1nnnn1-c1ccccc1)Nc1nsc(-c2ccccc2)n1 |  | inactive: -13.5% [at 57.5 µM] |
| O=C(CCc1ccccc1)NNC(=O)c1cc(Cl)ccc1O |  | inactive: -11.5% |
| CCN1CCN(C(c2ccc(C(F)(F)F)cc2)c2ccc3cccnc3c2O)CC1 (stereo unspecified) | inconclusive: 8.91 µM [cytotoxic, full curve] |  |
| COc1ccc(C(=O)/C=C/c2cccc(OCc3ccccc3)c2)cc1CSCC(=O)O |  | inactive: -25.6% |
| CCc1nc2c(OCc3ccc(Cl)cc3Cl)cccn2c1N(C=O)Cc1ccc(OC)cc1 |  | inactive: -19.5% |
| CC(C)CC(=O)NC(c1cccs1)c1ccc2cccnc2c1O (stereo unspecified) | inconclusive: 1.78 µM [cytotoxic, partial curve, poor fit] |  |
| CCCOCc1ccc(O)c2ncccc12 | inconclusive: 35.5 µM [cytotoxic, single point] |  |
| Cc1ccc(Cl)cc1-c1ccc(C=Nc2ccc(N3CCOCC3)cc2)o1 |  | inactive: -29.7% [at 57.5 µM] |
| COc1ccc(-c2sc3ccc(OC)cc3c2-c2ccc(O)cc2)cc1 |  | inactive: -24.2% |
| COc1cccc(-c2sc3ccccc3c2-c2ccc(OCCN3CCCC3)cc2)c1 | inconclusive: 8.91 µM [cytotoxic, single point] |  |
| COc1cc(/C=C(/C#N)C(=O)NCCc2c[nH]c3ccccc23)ccc1OCc1ccccc1F | active: 25.1 µM |  |
| Cc1cc(C)n(-c2nc(Nc3ccccc3C(F)(F)F)nc(-n3nc(C)cc3C)n2)n1 | inconclusive: 3.55 µM [cytotoxic, single point] |  |
| COc1ccc(C2CC(c3cccc(Br)c3)=NN2c2ccc(S(N)(=O)=O)cc2)cc1 (stereo unspecified) |  | inactive: -13.6% [at 57.5 µM] |
| Oc1[nH]c2ccc(Br)cc2c1N=NC(=S)N1CCOCC1 | inconclusive: 3.55 µM [cytotoxic, partial curve] |  |
| O=C(NNC(=O)c1cnccn1)c1ccc(Cl)c(Cl)c1 | inconclusive: 28.2 µM [cytotoxic, single point] |  |
| O=C(Nc1nc(-c2ccccn2)cs1)c1ccco1 | inconclusive: 15.8 µM [cytotoxic, partial curve] |  |
| C=CCOC(=O)C1=C[C@@H](c2ccc3c(c2)OCO3)C[C@@H](OCCCCO)O1 |  | inactive: -28.3% [at 57.5 µM] |
| CCN(CC)CCNC(=O)CCc1c(C)nc2c(c(C)nn2-c2ccc(C)cc2)c1C | inconclusive: 3.16 µM [cytotoxic, single point] |  |
| COc1cccc(CNCCc2c[nH]c3ccccc23)c1OCc1ccc(F)cc1 | inconclusive: 4.47 µM [cytotoxic, single point] |  |
| CC1CCN(Cc2c(C(=O)N/N=C/c3ccccc3O)nnn2-c2nonc2N)CC1 | inconclusive: 8.91 µM [cytotoxic, partial curve, poor fit] |  |
| COc1ccccc1NCC(=O)N/N=C/c1c(O)ccc2ccccc12 | inconclusive: 8.91 µM [cytotoxic, full curve] |  |
| CC(=O)Nc1cccc(-c2ccnc3c2CC(C)(C(=O)Nc2cccc(Oc4ccccc4)c2)O3)c1 (stereo unspecified) | inconclusive: 25.1 µM [cytotoxic, single point] |  |
